Our source for the cell number change and AC50 values is PubChem BioAssay AID2685 (National Center for Advancing Translational Sciences (NCATS), 2010).

The other results are listed elsewhere or left out. Further columns of the screen follow, without active or inactive calls. The list favours compounds with an active or inconclusive main result. Words in brackets tell the shape of the fitted curve; partial curves, single points and poor fits give uncertain potencies.

The nature of the assay: qHTS Assay for Lipid Storage Modulators in Drosophila S3 Cells.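 On cell number change: cells counted by Cell Tracker Red CMTPX staining in the red channel.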 The conditions noted are these: BODIPY lipid droplet fluorescence, 18-24 h; for cell number change: measured here: cell count max response, cells fed with added oleic acid. Summed up: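 Drosophila S3 cells loaded with oleic acid (400 uM, as added) and compounds at several concentrations; lipid droplets imaged by 488-nm laser-scanning cytometry, 500–530 nm intensity and object ratio to cell channel. Percent activity normalized to 20 uM Triacsin C.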

[1] abbreviates: measured here: lipid fluorescence (Fed channel) AC50, cells fed with added oleic acid.
The mark [2] stands for this setting: measured here: cell number channel AC50, cells fed with added oleic acid.

What is called AC50 is the concentration at which the activity in the assay is half-maximal. A low value points to greater potency. Take `CN(C(=O)c1cccs1)c1ccccc1C(=O)O`: the cell number change was -10.2%. In addition, under setting [1], the AC50 was 8200 nM [falling, partial curve].
In the case of `CCc1cccc(OCC(=O)Nc2cc(Cl)ccc2-n2cncn2)c1`, the cell number change was 3.16%. Moreover, the AC50 under setting [1] was 18400 nM [rising, partial curve, poor fit].
With `COc1ccc(S(=O)(=O)N2CCCC(C(F)(F)F)C2)cc1` (configuration not stated), the cell number change was -17.8%.
Still for that read-out and setting: the value for `CN(CC(=O)Nc1ccc(Cl)cc1)Cc1cc(=O)n2ccsc2n1` was -28.6%.
For the molecule `CCCOc1ccc(CNC(=O)CCC(=O)n2ncc3cc(C)ccc32)cc1`, the cell number change is 4.03%.
Same read-out and setting: the value for `N#Cc1c(/N=C/C=C/c2ccccc2)sc2c1CCCC2` was 12.6%.
For `CCCn1c(=O)c2c(c3ccccc31)OCC(=O)N2`, the cell number change came to 24.8%. Further, the AC50 under setting [2] was 2590 nM [rising, full curve, poor fit]. Besides, the concentration at half-maximal activity (AC50) under setting [1] was 4110 nM [rising, partial curve].
For `CC(NC(=O)COC(=O)c1ccccc1SCC(=O)N1CCCC1)c1ccccc1` (configuration not stated), under setting [1], the AC50 was 1460 nM [falling, full curve, poor fit].
With `COc1ccc(NC(=O)c2cccc(OC(F)F)c2)cc1Cl`, the cell number change is 38.7%. Besides, under setting [2], the concentration at half-maximal activity (AC50) was 184 nM [rising, full curve].
For the molecule `O=C(C[n+]1cccc(CNC(=O)c2ccc(OC(F)F)cc2)c1)Nc1ccc(F)cc1`, the cell number change is 90.1%. Also, under setting [2], the concentration at half-maximal activity (AC50) is 29100 nM [rising, single point].
For the molecule `O=C(N/N=C1\CCCc2ccccc21)c1ccc([N+](=O)[O-])cc1Cl`, the cell number change was -36.9%. Besides, the concentration at half-maximal activity (AC50) under setting [2] was 16.4 nM [falling, full curve, poor fit].
As to `CN1CCc2c(sc(/N=C/c3cc(Cl)ccc3O)c2C#N)C1`, the cell number change worked out at 13.1%.
Regarding `Cc1ccc(/C=C(\NC(=O)c2ccccc2)C(=O)OCc2ccccc2)cc1`, the half-maximal activity concentration (AC50) under setting [2] is 2310 nM [rising, single point] and the concentration at half-maximal activity (AC50) under setting [1] is 1640 nM [rising, full curve].
Regarding `C/C(=N\NC(=O)Cc1c(C)[nH][nH]c1=O)c1cccc(Br)c1`, the cell number change was 29.6%. The AC50 under setting [1] is 3260 nM [rising, single point].
On to `COc1cccc(NC(=O)CN2C(=O)NC(c3ccccc3)(c3ccccc3)C2=O)c1`, for which the cell number change stood at 4.78%. The AC50 under setting [1] is 29100 nM [rising, single point].
Take `Fc1ccc(CSc2ncnc3ccccc23)cc1`: the cell number change was -28%. For the same molecule, the AC50 under setting [2] is 731 nM [falling, full curve, poor fit]. For the same molecule, the AC50 under setting [1] was 1030 nM [falling, full curve].
In the case of `COc1cc(NC(=O)C2CC2C)c(C(=O)O)cc1OC` (configuration not stated), the cell number change came out at 17%.
As to `COc1ccc(/C=C/C(=O)OCC(=O)NC2CCCC2)cc1`, the cell number change is 34.8%. The AC50 under setting [2] is 164 nM [rising, partial curve, poor fit]. Moreover, under setting [1], the AC50 was 9200 nM [rising, partial curve, poor fit].
